Experimental data published in patent publication US4183939A, “Glaucine analgesic method” (priority 1978, dated 1980).
Where a name gives a salt, the structure may show the parent alone.

Assay: palatability of 0.2 percent solutions of d,l-glaucine salts (taste)
Conditions: 0.2 percent (weight by volume) in distilled water, a few drops to the tongue

Structure (SMILES)	palatability (taste)	other results
COc1cc2c(cc1OC)-c1c(OC)c(OC)cc3c1C(C2)N(C)CC3 (racemic) [d,l-glaucine lactate]	lack the sharp, metallic flavor and to be unobjectionable	
COc1cc2c(cc1OC)-c1c(OC)c(OC)cc3c1C(C2)N(C)CC3 (racemic) [succinate]	more objectionable than the hydrobromide	
COc1cc2c(cc1OC)-c1c(OC)c(OC)cc3c1C(C2)N(C)CC3 (racemic) [salicylate, d,l-glaucine salicylate]	more objectionable than the hydrobromide	
COc1cc2c(cc1OC)-c1c(OC)c(OC)cc3c1C(C2)N(C)CC3 (racemic) [hydrobromide, d,l-glaucine hydrobromide]		palatability (taste) (hydrobromide): objectionable with a bitter, sharp and metallic initial taste which increased with time
COc1cc2c(cc1OC)-c1c(OC)c(OC)cc3c1C(C2)N(C)CC3 (racemic) [d,l-glaucine phosphate]		palatability (taste) (listed as d,l-Glaucine phosphate (2:3)): lack the sharp, metallic flavor and to be unobjectionable
